Experimental data as given in paper PMC13529552.
No constants are given. Whether binding was seen depends on the method and setting. Binding seen in cells or lysates may run through a third protein. Some binding calls cover weakened binding; strength is not graded here. Sequences can lack the tags named with a protein.

Amino acid sequences for entries named in this document (tags omitted).
UniProt P62136: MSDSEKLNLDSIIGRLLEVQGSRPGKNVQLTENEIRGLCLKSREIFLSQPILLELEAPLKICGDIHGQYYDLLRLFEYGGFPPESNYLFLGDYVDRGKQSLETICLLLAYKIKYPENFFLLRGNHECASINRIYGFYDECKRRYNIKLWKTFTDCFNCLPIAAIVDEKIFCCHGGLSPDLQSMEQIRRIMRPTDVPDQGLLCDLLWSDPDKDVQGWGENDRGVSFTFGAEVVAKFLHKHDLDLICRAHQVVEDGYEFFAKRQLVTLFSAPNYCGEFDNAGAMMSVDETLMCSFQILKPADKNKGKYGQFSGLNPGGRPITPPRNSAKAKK
UniProt P67775: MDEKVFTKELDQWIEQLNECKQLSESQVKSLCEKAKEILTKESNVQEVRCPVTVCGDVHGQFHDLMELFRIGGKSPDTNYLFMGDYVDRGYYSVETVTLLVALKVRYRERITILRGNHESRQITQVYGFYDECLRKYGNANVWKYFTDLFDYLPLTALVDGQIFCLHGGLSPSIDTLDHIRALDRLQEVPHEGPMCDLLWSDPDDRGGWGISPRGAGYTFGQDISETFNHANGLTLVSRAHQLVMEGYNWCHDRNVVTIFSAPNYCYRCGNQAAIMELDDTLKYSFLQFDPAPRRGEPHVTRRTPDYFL

Target: T1, Flag-GSDMD (gasdermin D) (mouse (from the plasmid name mGSDMD)) (UniProt Q9D8T2)
T1 sequence: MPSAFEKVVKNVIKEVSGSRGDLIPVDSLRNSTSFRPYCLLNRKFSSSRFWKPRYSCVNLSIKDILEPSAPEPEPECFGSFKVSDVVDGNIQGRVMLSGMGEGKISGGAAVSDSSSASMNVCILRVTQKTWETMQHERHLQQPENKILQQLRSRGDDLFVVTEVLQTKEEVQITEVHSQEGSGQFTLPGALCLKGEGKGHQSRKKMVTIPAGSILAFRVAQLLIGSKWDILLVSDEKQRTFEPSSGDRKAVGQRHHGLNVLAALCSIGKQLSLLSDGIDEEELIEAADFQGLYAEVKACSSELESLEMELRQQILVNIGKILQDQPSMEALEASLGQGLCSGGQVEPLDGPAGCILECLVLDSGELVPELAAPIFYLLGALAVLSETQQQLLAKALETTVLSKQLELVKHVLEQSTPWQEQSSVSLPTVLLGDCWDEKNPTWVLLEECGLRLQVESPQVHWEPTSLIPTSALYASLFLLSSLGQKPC
Assay: co-IP; anti-Flag immunoprecipitation from HEK293 cells co-transfected with Flag-GSDMD and/or HA-PP1α or HA-PP2α, followed by immunoblot; EBC lysis buffer (50 mM Tris pH 7.5, 120 mM NaCl, 0.5% NP-40)

binding	Substance
binds	HA-PP1α (from UniProt P62136 1-330) (enzyme)
binds	HA-PP2α (from UniProt P67775 1-309) (enzyme)
